Here are results for eleven molecules from patent US20090197798A1 (NATIONAL TAIWAN UNIVERSITY, published 2009).

No constants are given. Whether binding was seen depends on the method and setting. Some binding calls cover weakened binding; strength is not graded here. Tags and fused reporters may be left off the sequences shown.

One assay has as its target T1, Recombinant soluble NRP1 (sNRP1) protein containing His6 and c-Myc domain tags (human) (UniProt O14786).
T1 sequence (looked up): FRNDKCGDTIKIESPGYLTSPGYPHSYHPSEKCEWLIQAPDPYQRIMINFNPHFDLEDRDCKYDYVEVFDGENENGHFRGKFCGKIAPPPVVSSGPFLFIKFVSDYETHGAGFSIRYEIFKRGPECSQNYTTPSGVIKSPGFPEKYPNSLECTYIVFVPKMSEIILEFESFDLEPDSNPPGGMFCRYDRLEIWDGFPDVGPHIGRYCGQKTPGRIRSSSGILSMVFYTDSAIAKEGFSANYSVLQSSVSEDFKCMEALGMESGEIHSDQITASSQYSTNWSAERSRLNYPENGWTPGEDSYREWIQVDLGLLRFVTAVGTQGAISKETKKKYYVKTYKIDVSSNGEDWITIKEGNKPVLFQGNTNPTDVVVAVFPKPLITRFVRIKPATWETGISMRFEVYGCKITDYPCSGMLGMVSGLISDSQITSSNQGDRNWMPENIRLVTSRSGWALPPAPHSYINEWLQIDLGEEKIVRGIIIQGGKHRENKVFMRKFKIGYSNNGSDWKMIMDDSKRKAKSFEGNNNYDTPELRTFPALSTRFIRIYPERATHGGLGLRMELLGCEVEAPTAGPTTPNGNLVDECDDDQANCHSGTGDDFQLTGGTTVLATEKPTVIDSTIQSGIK
Description: phage display biopanning on plate-coated sNRP1, four rounds.
With RRSRQSR [phage-displayed peptide 4-43], the binding entry is “binds”. On to QLRRQRR [phage-displayed peptide 4-2], for which the binding entry was “binds”.

Regarding RSRRIRL [phage-displayed peptide 4-5], the binding entry was “binds”. On the same count and under the same terms, the value for RRLRRRR [phage-displayed peptide 4-28] was “binds”; that for RRPRMLT [phage-displayed peptide 4-1] was “binds”; that for HKRRIRQ [phage-displayed peptide 4-53] was “binds”. On the same count and under the same terms, the value for HSRRMRK [phage-displayed peptide 4-3] was “binds”; that for MKRRPRK [phage-displayed peptide 4-9] was “binds”.

As for PIRRQRL [phage-displayed peptide 4-40], the binding result is “binds”.

For a further assay, the target named is T1, Recombinant soluble NRP1 (sNRP1) protein containing His6 and c-Myc domain tags (human). Description: SPR (Biacore). For orientation: SPR reads the build-up and loss of mass on a sensor chip optically.
CRRPRMLTC (cyclic peptide; cysteine-linked cyclic conformation) [cyclic peptide DG1 (…)]: the binding result was “binds”.

Another assay shares this target. In words: figure legend (FIG. 5).
In the case of CRRPRMLTC (cyclic peptide; cysteine-linked cyclic conformation) [cyclic peptide DG1 (…)], the binding result was “binds”.

With CRSRRIRLC (cyclic peptide; cysteine-linked cyclic conformation) [cyclic peptide DG2 (…)], the binding result is given as “binds”.
